Source: PMC5707401

By UniProt entry, the sequences of proteins in these tests, tags left out.
UniProt Q9UMS4: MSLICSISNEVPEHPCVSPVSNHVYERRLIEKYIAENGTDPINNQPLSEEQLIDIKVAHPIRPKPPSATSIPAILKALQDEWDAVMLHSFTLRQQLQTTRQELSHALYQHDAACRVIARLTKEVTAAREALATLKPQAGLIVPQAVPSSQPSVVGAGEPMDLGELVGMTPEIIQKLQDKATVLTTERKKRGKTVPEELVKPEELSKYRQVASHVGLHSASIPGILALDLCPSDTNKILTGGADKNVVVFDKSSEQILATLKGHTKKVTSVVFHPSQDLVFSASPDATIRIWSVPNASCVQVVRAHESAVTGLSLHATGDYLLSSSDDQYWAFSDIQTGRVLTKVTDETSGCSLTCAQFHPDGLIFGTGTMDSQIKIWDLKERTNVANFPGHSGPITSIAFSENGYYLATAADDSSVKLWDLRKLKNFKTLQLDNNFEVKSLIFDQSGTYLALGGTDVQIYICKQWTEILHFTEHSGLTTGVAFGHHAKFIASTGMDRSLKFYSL
UniProt P08238: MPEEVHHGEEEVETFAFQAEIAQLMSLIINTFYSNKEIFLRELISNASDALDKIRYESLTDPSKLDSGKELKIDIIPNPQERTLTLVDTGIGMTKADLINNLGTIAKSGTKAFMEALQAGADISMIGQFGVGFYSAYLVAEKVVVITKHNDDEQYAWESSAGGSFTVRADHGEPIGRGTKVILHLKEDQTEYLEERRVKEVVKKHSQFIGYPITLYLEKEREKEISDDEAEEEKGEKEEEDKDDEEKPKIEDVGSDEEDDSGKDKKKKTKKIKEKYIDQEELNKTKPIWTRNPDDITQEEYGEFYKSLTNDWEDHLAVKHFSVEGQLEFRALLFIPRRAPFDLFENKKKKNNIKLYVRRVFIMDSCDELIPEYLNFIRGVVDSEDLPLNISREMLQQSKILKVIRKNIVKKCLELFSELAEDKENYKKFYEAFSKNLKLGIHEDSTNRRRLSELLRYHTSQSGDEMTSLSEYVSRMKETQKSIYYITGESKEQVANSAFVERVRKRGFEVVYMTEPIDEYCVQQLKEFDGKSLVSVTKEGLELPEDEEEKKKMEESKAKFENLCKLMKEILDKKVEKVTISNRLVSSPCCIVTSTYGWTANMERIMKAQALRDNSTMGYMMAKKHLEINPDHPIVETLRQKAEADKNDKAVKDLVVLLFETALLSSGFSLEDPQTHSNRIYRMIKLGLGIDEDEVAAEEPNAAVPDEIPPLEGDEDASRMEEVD
UniProt Q9UHV9: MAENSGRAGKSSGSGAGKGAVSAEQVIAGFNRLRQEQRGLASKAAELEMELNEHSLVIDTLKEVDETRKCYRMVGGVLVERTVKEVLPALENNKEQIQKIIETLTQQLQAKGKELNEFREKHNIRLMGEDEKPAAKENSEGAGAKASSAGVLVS
UniProt O15212: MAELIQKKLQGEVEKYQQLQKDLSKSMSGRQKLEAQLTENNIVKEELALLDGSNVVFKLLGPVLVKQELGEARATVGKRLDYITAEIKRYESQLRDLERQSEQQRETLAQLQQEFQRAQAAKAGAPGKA
UniProt P35998: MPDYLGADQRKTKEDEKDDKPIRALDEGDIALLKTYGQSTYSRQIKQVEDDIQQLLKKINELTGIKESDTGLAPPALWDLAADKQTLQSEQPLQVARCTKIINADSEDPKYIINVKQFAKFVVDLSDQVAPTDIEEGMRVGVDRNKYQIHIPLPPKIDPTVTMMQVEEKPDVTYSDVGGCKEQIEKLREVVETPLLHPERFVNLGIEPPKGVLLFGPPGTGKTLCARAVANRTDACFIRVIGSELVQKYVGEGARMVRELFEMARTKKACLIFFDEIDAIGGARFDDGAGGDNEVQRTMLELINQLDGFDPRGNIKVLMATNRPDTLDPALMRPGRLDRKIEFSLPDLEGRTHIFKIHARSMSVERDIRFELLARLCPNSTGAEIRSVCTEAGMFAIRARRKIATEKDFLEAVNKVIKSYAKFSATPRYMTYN
UniProt P62333: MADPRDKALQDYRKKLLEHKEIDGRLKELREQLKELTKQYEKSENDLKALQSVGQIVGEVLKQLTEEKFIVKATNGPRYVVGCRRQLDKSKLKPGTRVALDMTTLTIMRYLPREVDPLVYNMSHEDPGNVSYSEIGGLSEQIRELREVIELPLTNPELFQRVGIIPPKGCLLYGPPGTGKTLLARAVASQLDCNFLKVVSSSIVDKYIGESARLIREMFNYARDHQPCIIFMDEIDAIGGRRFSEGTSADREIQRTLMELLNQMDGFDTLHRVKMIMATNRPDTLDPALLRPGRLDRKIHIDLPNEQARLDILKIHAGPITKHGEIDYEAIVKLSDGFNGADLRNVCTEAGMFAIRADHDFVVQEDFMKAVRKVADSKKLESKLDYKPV
UniProt Q13200: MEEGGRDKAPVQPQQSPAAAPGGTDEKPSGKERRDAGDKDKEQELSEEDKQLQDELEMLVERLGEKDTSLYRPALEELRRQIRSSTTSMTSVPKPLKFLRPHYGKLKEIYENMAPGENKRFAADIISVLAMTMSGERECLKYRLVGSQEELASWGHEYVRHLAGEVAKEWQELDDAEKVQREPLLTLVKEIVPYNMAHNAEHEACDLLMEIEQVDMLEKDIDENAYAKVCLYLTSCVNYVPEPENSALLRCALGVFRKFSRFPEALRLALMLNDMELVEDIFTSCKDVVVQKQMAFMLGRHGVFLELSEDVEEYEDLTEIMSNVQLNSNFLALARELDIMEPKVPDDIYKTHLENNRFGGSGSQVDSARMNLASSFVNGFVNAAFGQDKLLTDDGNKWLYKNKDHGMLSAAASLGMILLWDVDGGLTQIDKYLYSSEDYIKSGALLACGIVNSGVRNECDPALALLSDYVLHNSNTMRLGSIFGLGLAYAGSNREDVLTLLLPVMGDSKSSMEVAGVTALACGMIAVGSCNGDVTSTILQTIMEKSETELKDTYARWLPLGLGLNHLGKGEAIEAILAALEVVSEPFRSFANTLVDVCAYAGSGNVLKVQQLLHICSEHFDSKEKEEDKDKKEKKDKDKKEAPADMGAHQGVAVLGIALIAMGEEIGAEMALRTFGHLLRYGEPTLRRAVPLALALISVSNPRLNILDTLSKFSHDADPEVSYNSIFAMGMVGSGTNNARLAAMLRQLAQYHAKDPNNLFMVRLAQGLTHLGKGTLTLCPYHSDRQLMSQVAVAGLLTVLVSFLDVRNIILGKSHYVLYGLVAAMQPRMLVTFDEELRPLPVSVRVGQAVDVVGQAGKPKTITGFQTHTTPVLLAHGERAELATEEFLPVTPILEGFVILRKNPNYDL
UniProt Q14676: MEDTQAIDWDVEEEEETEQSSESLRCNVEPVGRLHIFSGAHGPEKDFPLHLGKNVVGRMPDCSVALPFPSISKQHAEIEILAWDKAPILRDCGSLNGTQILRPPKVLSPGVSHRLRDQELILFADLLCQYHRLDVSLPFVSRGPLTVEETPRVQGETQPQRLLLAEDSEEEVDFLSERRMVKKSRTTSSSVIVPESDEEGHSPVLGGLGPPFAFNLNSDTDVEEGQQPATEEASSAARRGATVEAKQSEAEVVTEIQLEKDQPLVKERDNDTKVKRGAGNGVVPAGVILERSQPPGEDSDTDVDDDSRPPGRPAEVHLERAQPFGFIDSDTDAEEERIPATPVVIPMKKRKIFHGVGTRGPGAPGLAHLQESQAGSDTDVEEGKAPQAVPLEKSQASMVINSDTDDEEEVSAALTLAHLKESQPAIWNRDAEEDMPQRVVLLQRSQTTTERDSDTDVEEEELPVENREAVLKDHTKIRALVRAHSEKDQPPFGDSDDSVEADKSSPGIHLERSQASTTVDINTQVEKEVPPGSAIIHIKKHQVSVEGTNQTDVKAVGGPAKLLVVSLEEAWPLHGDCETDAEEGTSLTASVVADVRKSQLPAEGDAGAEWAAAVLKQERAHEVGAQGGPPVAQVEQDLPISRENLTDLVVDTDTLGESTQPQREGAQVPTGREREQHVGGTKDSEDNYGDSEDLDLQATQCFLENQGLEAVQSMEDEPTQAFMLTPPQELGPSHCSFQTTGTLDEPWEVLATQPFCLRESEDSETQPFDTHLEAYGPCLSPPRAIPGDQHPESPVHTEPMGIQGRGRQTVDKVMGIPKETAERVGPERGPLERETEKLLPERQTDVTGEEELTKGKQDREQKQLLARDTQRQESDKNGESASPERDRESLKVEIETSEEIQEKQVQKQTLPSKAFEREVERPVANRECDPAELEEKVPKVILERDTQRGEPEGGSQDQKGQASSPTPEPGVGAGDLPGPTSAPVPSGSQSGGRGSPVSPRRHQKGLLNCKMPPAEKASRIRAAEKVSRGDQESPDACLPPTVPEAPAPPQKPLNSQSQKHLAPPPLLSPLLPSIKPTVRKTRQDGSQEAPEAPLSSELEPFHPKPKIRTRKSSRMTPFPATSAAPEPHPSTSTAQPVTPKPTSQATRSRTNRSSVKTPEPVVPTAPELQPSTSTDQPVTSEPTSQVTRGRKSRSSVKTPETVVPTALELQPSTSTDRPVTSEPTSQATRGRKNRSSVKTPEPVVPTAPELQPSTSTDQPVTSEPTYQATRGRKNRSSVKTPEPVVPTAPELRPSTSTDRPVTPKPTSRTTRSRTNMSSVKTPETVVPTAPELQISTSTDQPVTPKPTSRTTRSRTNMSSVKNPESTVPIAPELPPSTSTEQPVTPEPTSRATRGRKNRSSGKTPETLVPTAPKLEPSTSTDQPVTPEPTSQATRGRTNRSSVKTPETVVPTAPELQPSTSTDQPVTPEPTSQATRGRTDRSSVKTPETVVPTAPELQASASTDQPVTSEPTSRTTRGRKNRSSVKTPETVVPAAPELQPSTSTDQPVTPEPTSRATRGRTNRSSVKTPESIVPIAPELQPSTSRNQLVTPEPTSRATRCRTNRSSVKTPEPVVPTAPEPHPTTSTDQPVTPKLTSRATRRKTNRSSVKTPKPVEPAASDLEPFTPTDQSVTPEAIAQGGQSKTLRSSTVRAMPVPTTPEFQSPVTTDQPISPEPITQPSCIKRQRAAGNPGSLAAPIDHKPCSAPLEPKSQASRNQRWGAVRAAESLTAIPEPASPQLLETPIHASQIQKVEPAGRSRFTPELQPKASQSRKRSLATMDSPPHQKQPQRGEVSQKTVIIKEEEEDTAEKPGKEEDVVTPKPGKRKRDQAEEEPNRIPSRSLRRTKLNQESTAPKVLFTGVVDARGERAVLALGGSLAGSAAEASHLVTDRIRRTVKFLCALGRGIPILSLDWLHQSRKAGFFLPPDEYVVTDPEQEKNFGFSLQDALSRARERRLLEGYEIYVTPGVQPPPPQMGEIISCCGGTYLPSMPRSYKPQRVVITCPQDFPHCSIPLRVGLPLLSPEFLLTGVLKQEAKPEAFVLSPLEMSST
UniProt Q9NQP4: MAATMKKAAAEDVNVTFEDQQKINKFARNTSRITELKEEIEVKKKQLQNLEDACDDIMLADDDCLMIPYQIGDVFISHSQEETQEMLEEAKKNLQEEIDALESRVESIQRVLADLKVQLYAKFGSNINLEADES
UniProt P62191: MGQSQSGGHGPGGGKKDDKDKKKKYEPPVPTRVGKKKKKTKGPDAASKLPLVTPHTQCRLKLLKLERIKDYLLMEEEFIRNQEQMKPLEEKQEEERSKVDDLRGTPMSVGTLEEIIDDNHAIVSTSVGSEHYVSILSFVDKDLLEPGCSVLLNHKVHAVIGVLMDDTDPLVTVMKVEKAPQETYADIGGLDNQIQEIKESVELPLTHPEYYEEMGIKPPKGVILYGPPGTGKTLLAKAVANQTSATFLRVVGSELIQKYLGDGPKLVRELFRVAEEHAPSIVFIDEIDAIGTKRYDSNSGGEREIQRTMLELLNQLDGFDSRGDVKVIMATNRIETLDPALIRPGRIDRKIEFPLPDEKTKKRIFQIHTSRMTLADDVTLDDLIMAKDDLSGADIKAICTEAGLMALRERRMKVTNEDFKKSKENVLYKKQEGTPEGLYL
UniProt P62195: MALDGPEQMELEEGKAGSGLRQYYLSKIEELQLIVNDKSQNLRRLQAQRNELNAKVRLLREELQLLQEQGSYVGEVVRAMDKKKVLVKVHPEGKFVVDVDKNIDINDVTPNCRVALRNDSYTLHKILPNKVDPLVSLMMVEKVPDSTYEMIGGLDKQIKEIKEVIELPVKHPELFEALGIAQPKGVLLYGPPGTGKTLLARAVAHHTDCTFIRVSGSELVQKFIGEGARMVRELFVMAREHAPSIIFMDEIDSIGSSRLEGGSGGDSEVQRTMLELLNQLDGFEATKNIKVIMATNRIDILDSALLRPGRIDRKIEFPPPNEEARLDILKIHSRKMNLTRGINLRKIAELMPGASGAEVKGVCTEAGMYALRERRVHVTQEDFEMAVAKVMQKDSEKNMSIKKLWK
UniProt P62304: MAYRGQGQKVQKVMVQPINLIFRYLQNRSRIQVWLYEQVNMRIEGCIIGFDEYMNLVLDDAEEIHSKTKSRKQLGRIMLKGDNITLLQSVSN
UniProt P61758: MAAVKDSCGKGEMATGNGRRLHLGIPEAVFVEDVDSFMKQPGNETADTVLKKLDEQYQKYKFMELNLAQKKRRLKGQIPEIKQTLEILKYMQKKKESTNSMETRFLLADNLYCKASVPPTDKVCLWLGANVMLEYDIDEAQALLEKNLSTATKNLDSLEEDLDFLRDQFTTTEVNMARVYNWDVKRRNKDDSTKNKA

target: GFP-tagged PRPF19 (human) (UniProt Q9UMS4); experiment: affinity purification with mass spectrometry; adapted SILAC-based AP: heavy-labelled HEK293T cells expressing the GFP-tagged RBUL mixed in equal amounts with light-labelled cells expressing GFP before lysis in mRIPA buffer; GFP-trap agarose beads, 1 h at 4 °C; on-bead trypsin digest, LC-MS/MS; putative interactors at mean z-score ≥ 2

| Molecule | binding |
| --- | --- |
| BAG6/BAT3 (from UniProt P46379 1-1132) | binds |
| DDB1 (from UniProt Q16531 1-1140) | binds |
| GET4/TRC35 (from UniProt Q7L5D6 1-327) | binds |
| HSP90AB1 (from UniProt P08238 1-724) | binds |
| PFDN1 (from UniProt O60925 1-122) | binds |
| PFDN2 (from UniProt Q9UHV9 1-154) | binds |
| PFDN6 (from UniProt O15212 1-129) | binds |
| PSMC2 (from UniProt P35998 1-433) | binds |
| PSMC6 (from UniProt P62333 1-389) | binds |
| PSMD2 (from UniProt Q13200 1-908) | binds |
| SNRNP200 (from UniProt O75643 1-2136) | binds |
| UBL4A (protein, UniProt P11441 1-157) MQLTVKALQGRECSLQVPEDELVSTLKQLVSEKLNVPVRQQRLLFKGKALADGKRLSDYSIGPNSKLNLVVKPLEKVLLEEGEAQRLADSPPPQVWQLISKVLARHFSAADASRVLEQLQRDYERSLSRLTLDDIERLASRFLHPEVTETMEKGFSK | binds |

Results, then the molecule that gave them:

| binding | Molecule |
| --- | --- |
| binds | DNAJA1 (from UniProt P31689 1-397) |
| binds | MDC1 (from UniProt Q14676 1-2089) |
| binds | PFDN4 (from UniProt Q9NQP4 1-134) |
| binds | PSMC1 (from UniProt P62191 1-440) |
| binds | PSMC5 (from UniProt P62195 1-406) |
| binds | SNRPD3 (from UniProt P62318 1-126) |
| binds | SNRPE (from UniProt P62304 1-92) |
| binds | VBP1/PFDN3 (from UniProt P61758 1-197) |
| binds | SNW1 (protein, UniProt Q13573 1-536) MALTSFLPAPTQLSQDQLEAEEKARSQRSRQTSLVSSRREPPPYGYRKGWIPRLLEDFGDGGAFPEIHVAQYPLDMGRKKKMSNALAIQVDSEGKIKYDAIARQGQSKDKVIYSKYTDLVPKEVMNADDPDLQRPDEEAIKEITEKTRVALEKSVSQKVAAAMPVRAADKLAPAQYIRYTPSQQGVAFNSGAKQRVIRMVEMQKDPMEPPRFKINKKIPRGPPSPPAPVMHSPSRKMTVKEQQEWKIPPCISNWKNAKGYTIPLDKRLAADGRGLQTVHINENFAKLAEALYIADRKAREAVEMRAQVERKMAQKEKEKHEEKLREMAQKARERRAGIKTHVEKEDGEARERDEIRHDRRKERQHDRNLSRAAPDKRSKLQRNENRDISEVIALGVPNPRTSNEVQYDQRLFNQSKGMDSGFAGGEDEIYNVYDQAWRGGKDMAQSIYRPSKNLDKDMYGDDLEARIKTNRFVPDKEFSGSDRRQRGREGPVQFEEDPFGLDKFLEEAKQHGGSKRPSDSSRPKEHEHEGKKRRKE |
| binds | XAB2 (protein, UniProt Q9HCS7 1-855) MVVMARLSRPERPDLVFEEEDLPYEEEIMRNQFSVKCWLRYIEFKQGAPKPRLNQLYERALKLLPCSYKLWYRYLKARRAQVKHRCVTDPAYEDVNNCHERAFVFMHKMPRLWLDYCQFLMDQGRVTHTRRTFDRALRALPITQHSRIWPLYLRFLRSHPLPETAVRGYRRFLKLSPESAEEYIEYLKSSDRLDEAAQRLATVVNDERFVSKAGKSNYQLWHELCDLISQNPDKVQSLNVDAIIRGGLTRFTDQLGKLWCSLADYYIRSGHFEKARDVYEEAIRTVMTVRDFTQVFDSYAQFEESMIAAKMETASELGREEEDDVDLELRLARFEQLISRRPLLLNSVLLRQNPHHVHEWHKRVALHQGRPREIINTYTEAVQTVDPFKATGKPHTLWVAFAKFYEDNGQLDDARVILEKATKVNFKQVDDLASVWCQCGELELRHENYDEALRLLRKATALPARRAEYFDGSEPVQNRVYKSLKVWSMLADLEESLGTFQSTKAVYDRILDLRIATPQIVINYAMFLEEHKYFEESFKAYERGISLFKWPNVSDIWSTYLTKFIARYGGRKLERARDLFEQALDGCPPKYAKTLYLLYAQLEEEWGLARHAMAVYERATRAVEPAQQYDMFNIYIKRAAEIYGVTHTRGIYQKAIEVLSDEHAREMCLRFADMECKLGEIDRARAIYSFCSQICDPRTTGAFWQTWKDFEVRHGNEDTIKEMLRIRRSVQATYNTQVNFMASQMLKVSGSATGTVSDLAPGQSGMDDMKLLEQRAEQLAAEAERDQPLRAQSKILFVRSDASREELAELAQQVNPEEIQLGEDEDEDEMDLEPNEVRLEQQSVPAAVFGSLKED |
| binds | AQR (protein, UniProt O60306 1-1485) MAAPAQPKKIVAPTVSQINAEFVTQLACKYWAPHIKKKSPFDIKVIEDIYEKEIVKSRFAIRKIMLLEFSQYLENYLWMNYSPEVSSKAYLMSICCMVNEKFRENVPAWEIFKKKPDHFPFFFKHILKAALAETDGEFSLHEQTVLLLFLDHCFNSLEVDLIRSQVQQLISLPMWMGLQLARLELELKKTPKLRKFWNLIKKNDEKMDPEAREQAYQERRFLSQLIQKFISVLKSVPLSEPVTMDKVHYCERFIELMIDLEALLPTRRWFNTILDDSHLLVHCYLSNLVRREEDGHLFSQLLDMLKFYTGFEINDQTGNALTENEMTTIHYDRITSLQRAAFAHFPELYDFALSNVAEVDTRESLVKFFGPLSSNTLHQVASYLCLLPTLPKNEDTTFDKEFLLELLVSRHERRISQIQQLNQMPLYPTEKIIWDENIVPTEYYSGEGCLALPKLNLQFLTLHDYLLRNFNLFRLESTYEIRQDIEDSVSRMKPWQSEYGGVVFGGWARMAQPIVAFTVVEVAKPNIGENWPTRVRADVTINLNVRDHIKDEWEGLRKHDVCFLITVRPTKPYGTKFDRRRPFIEQVGLVYVRGCEIQGMLDDKGRVIEDGPEPRPNLRGESRTFRVFLDPNQYQQDMTNTIQNGAEDVYETFNIIMRRKPKENNFKAVLETIRNLMNTDCVVPDWLHDIILGYGDPSSAHYSKMPNQIATLDFNDTFLSIEHLKASFPGHNVKVTVEDPALQIPPFRITFPVRSGKGKKRKDADVEDEDTEEAKTLIVEPHVIPNRGPYPYNQPKRNTIQFTHTQIEAIRAGMQPGLTMVVGPPGTGKTDVAVQIISNIYHNFPEQRTLIVTHSNQALNQLFEKIMALDIDERHLLRLGHGEEELETEKDFSRYGRVNYVLARRIELLEEVKRLQKSLGVPGDASYTCETAGYFFLYQVMSRWEEYISKVKNKGSTLPDVTEVSTFFPFHEYFANAPQPIFKGRSYEEDMEIAEGCFRHIKKIFTQLEEFRASELLRSGLDRSKYLLVKEAKIIAMTCTHAALKRHDLVKLGFKYDNILMEEAAQILEIETFIPLLLQNPQDGFSRLKRWIMIGDHHQLPPVIKNMAFQKYSNMEQSLFTRFVRVGVPTVDLDAQGRARASLCNLYNWRYKNLGNLPHVQLLPEFSTANAGLLYDFQLINVEDFQGVGESEPNPYFYQNLGEAEYVVALFMYMCLLGYPADKISILTTYNGQKHLIRDIINRRCGNNPLIGRPNKVTTVDRFQGQQNDYILLSLVRTRAVGHLRDVRRLVVAMSRARLGLYIFARVSLFQNCFELTPAFSQLTARPLHLHIIPTEPFPTTRKNGERPSHEVQIIKNMPQMANFVYNMYMHLIQTTHHYHQTLLQLPPAMVEEGEEVQNQETELETEEEAMTVQADIIPSPTDTSCRQETPAFQTDTTPSETGATSTPEAIPALSETTPTVVGAVSAPAEANTPQDATSAPEETK |
| binds | ubiquitin-specific peptidase USP19 (protein, UniProt O94966 1-1318) MSGGASATGPRRGPPGLEDTTSKKKQKDRANQESKDGDPRKETGSRYVAQAGLEPLASGDPSASASHAAGITGSRHRTRLFFPSSSGSASTPQEEQTKEGACEDPHDLLATPTPELLLDWRQSAEEVIVKLRVGVGPLQLEDVDAAFTDTDCVVRFAGGQQWGGVFYAEIKSSCAKVQTRKGSLLHLTLPKKVPMLTWPSLLVEADEQLCIPPLNSQTCLLGSEENLAPLAGEKAVPPGNDPVSPAMVRSRNPGKDDCAKEEMAVAADAATLVDEPESMVNLAFVKNDSYEKGPDSVVVHVYVKEICRDTSRVLFREQDFTLIFQTRDGNFLRLHPGCGPHTTFRWQVKLRNLIEPEQCTFCFTASRIDICLRKRQSQRWGGLEAPAARVGGAKVAVPTGPTPLDSTPPGGAPHPLTGQEEARAVEKDKSKARSEDTGLDSVATRTPMEHVTPKPETHLASPKPTCMVPPMPHSPVSGDSVEEEEEEEKKVCLPGFTGLVNLGNTCFMNSVIQSLSNTRELRDFFHDRSFEAEINYNNPLGTGGRLAIGFAVLLRALWKGTHHAFQPSKLKAIVASKASQFTGYAQHDAQEFMAFLLDGLHEDLNRIQNKPYTETVDSDGRPDEVVAEEAWQRHKMRNDSFIVDLFQGQYKSKLVCPVCAKVSITFDPFLYLPVPLPQKQKVLPVFYFAREPHSKPIKFLVSVSKENSTASEVLDSLSQSVHVKPENLRLAEVIKNRFHRVFLPSHSLDTVSPSDTLLCFELLSSELAKERVVVLEVQQRPQVPSVPISKCAACQRKQQSEDEKLKRCTRCYRVGYCNQLCQKTHWPDHKGLCRPENIGYPFLVSVPASRLTYARLAQLLEGYARYSVSVFQPPFQPGRMALESQSPGCTTLLSTGSLEAGDSERDPIQPPELQLVTPMAEGDTGLPRVWAAPDRGPVPSTSGISSEMLASGPIEVGSLPAGERVSRPEAAVPGYQHPSEAMNAHTPQFFIYKIDSSNREQRLEDKGDTPLELGDDCSLALVWRNNERLQEFVLVASKELECAEDPGSAGEAARAGHFTLDQCLNLFTRPEVLAPEEAWYCPQCKQHREASKQLLLWRLPNVLIVQLKRFSFRSFIWRDKINDLVEFPVRNLDLSKFCIGQKEEQLPSYDLYAVINHYGGMIGGHYTACARLPNDRSSQRSDVGWRLFDDSTVTTVDESQVVTRYAYVLFYRRRNSPVERPPRAGHSEHHPDLGPAAEAAASQASRIWQELEAEEEPVPEGSGPLGPWGPQDWVGPLPRGPTTPDEGCLRYFVLGTVAALVALVLNVFYPLVSQSRWR |
| binds | PLRG1 (protein, UniProt O43660 1-514) MVEEVQKHSVHTLVFRSLKRTHDMFVADNGKPVPLDEESHKRKMAIKLRNEYGPVLHMPTSKENLKEKGPQNATDSYVHKQYPANQGQEVEYFVAGTHPYPPGPGVALTADTKIQRMPSESAAQSLAVALPLQTKADANRTAPSGSEYRHPGASDRPQPTAMNSIVMETGNTKNSALMAKKAPTMPKPQWHPPWKLYRVISGHLGWVRCIAVEPGNQWFVTGSADRTIKIWDLASGKLKLSLTGHISTVRGVIVSTRSPYLFSCGEDKQVKCWDLEYNKVIRHYHGHLSAVYGLDLHPTIDVLVTCSRDSTARIWDVRTKASVHTLSGHTNAVATVRCQAAEPQIITGSHDTTIRLWDLVAGKTRVTLTNHKKSVRAVVLHPRHYTFASGSPDNIKQWKFPDGSFIQNLSGHNAIINTLTVNSDGVLVSGADNGTMHLWDWRTGYNFQRVHAAVQPGSLDSESGIFACAFDQSESRLLTAEADKTIKVYREDDTATEETHPVSWKPEIIKRKRF |

These are yes or no findings as the source states them, for the method shown. In cells and extracts the contact can be indirect. A yes stands for co-enrichment or nearness to the bait. Other partners may have been found.
